# Measurements from PubChem BioAssay AID2685 (National Center for Advancing Translational Sciences (NCATS), 2010).
# The list shows a part of the results. Further columns of the screen follow, without active or inactive calls. The list favours compounds with an active or inconclusive main result. Potencies come from curve fits of mixed quality, noted in brackets.
# Assay: qHTS Assay for Lipid Storage Modulators in Drosophila S3 Cells;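 for cell number change: cells counted by Cell Tracker Red CMTPX staining in the red channel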
# Settings: BODIPY lipid droplet fluorescence, 18-24 h; for cell number change: measured here: cell count max response, cells fed with added oleic acid
# In short: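 Drosophila S3 cells got compounds at several concentrations plus oleic acid (400 uM solution). Laser-scanning cytometry with 488 nm excitation read lipid droplets at 500-530 nm and cells at 575-640 nm. Percent activity was relative to 20 uM Triacsin C.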
# [1] = measured here: lipid fluorescence (Fed channel) AC50, cells fed with added oleic acid
# [2] = measured here: cell number channel AC50, cells fed with added oleic acid
SMILES,cell number change,AC50 [1],AC50 [2]
COC(=O)c1ccc(C2C(C#N)=C(N)Oc3cc(C)n(C)c(=O)c32)cc1 (stereo not given),10.1%,"2.59 µM [rising, partial curve]",–
CC(Sc1nnc(-c2cccs2)n1-c1ccccc1)C(=O)NCc1ccco1 (stereo not given),38.3%,"1.3 µM [rising, full curve]","1.46 µM [rising, full curve]"
CCN1CCCn2c1nc1c2c(=O)n(C)c(=O)n1C,-59.1%,–,"23.1 µM [falling, partial curve]"
CN1CCN(c2cc(-c3ccccc3)nc3cc(-c4ccc(F)cc4)nn23)CC1,43.1%,"1.46 µM [rising, partial curve]","1.64 µM [rising, full curve]"
Cc1ccnc2nc(C(=O)Nc3ccc(N4CCOCC4)cc3)nn12,-32.3%,"3.66 µM [falling, full curve]","29.1 µM [falling, single point]"
CCn1c(=O)c(C(=O)Nc2nc3ccccc3[nH]2)c(O)c2ccccc21,-35.4%,"29.1 µM [falling, single point]","16.4 µM [falling, single point]"
CCc1ccc(NCc2ccc(OC)c(Cn3ccnc3)c2)cc1,-47.7%,"29.1 µM [falling, single point]","29.1 µM [falling, single point]"
CCOc1ccc(NC(=O)CS(=O)(=O)c2cn(CC)c3ccccc23)cc1,–,"6.51 µM [rising, single point]",–
Cc1cc(C)n(CCC(=O)N/N=C/c2c(O)ccc3ccccc23)n1,-4.59%,"18.4 µM [falling, single point]",–
CC(NC(=S)Nc1ccc(Cl)cc1)C(c1ccccc1)N1CCOCC1 (stereo not given),20%,"10.3 µM [rising, partial curve]",–
CCN(CC)C(=O)COc1ccc2c(-c3ccc(OC)cc3)cc(=O)oc2c1,-23.5%,–,–
Cc1ccc(OCCNC(=O)/C=C/c2ccccc2)cc1C,19.4%,"14.6 µM [rising, single point]",–
CC(=O)Nc1ccccc1OCc1nnc(-c2ccc(Cl)cc2)o1,–,–,"0.259 µM [rising, full curve, poor fit]"
Cn1c(SCC(=O)Nc2ccc(NC(=O)c3ccccc3)cc2)nnc1-c1ccncc1,10.9%,–,–
Cc1cccc(NC(=O)CC(C)(C)C)c1,-6.27%,"0.103 µM [falling, full curve, poor fit]",–
COc1ccc(CN(C)C(=O)COC(=O)c2c(-c3ccccc3Cl)noc2C)cc1,28.1%,"13 µM [rising, single point]",–
CCc1ccc(OC(=O)c2cccnc2)cc1,9.68%,"7.31 µM [rising, full curve, poor fit]",–
O=C(Cc1cccs1)Nc1cccc(-c2nc3ccccc3[nH]2)c1,-5.01%,"0.366 µM [rising, partial curve, poor fit]",–

SMILES,cell number change,AC50 [1],AC50 [2]
O=C(CSc1nnc(COc2ccccc2)o1)c1ccccc1,–,"0.116 µM [falling, full curve, poor fit]",–
O=[N+]([O-])/C(=C\Nc1ccccc1Cl)S(=O)(=O)c1ccccc1,-19%,"32.6 µM [falling, single point]",–
COc1cc(NC(=O)CN2CCN(S(=O)(=O)/C=C/c3ccccc3)CC2)cc(OC)c1OC,-9.59%,"0.461 µM [falling, full curve]",–
COc1ccc(N2CCN(C(=O)c3cccnc3)CC2)c([N+](=O)[O-])c1,-11.4%,"0.103 µM [falling, full curve, poor fit]","0.092 µM [falling, full curve, poor fit]"
COc1ccc(NC(=S)NC(C)C(c2ccccc2)N2CCOCC2)cc1 (stereo not given),41.8%,"4.11 µM [rising, full curve]","6.51 µM [rising, full curve]"
Cc1ccc(CNC(=O)COC(=O)c2ccc(Br)o2)cc1,12.7%,–,"0.58 µM [falling, single point]"
COc1ccccc1S(=O)(=O)Cc1ccc(C(=O)N2CCN(c3ccccc3)CC2)o1,-32.7%,"7.31 µM [falling, partial curve]","5.17 µM [falling, partial curve]"
CCc1ccccc1NC(=O)C1CCCN(c2ncccn2)C1 (stereo not given),16.7%,–,–
CCN(CC)S(=O)(=O)c1cccc(NC(=O)CNc2cccc(S(=O)(=O)N3CCOCC3)c2)c1,-61.5%,"3.26 µM [falling, partial curve]","2.06 µM [falling, full curve]"
O=C(Nc1ccc(F)cc1)c1ccc2c(=O)n(CC3CCCO3)c(=S)[nH]c2c1 (stereo not given),66.7%,"4.61 µM [falling, single point]","29.1 µM [rising, single point]"
COc1cc(S(=O)(=O)Nc2cccc3cn[nH]c23)c(OC)cc1Cl,-3.24%,"29.1 µM [falling, single point]",–
Cc1cccc(C(=O)Nc2ccc(S(=O)(=O)Nc3nc(C)cc(C)n3)cc2)c1,10.6%,"1.64 µM [rising, partial curve]",–
C=CCNc1nc(Nc2ccc(OC)cc2)nc(OCC)n1,33.2%,"2.91 µM [rising, partial curve]","2.59 µM [rising, full curve, poor fit]"
CC(=O)c1ccc(S(=O)(=O)NC2CC(=O)N(c3ccc(C)c(C)c3)C2)cc1 (stereo not given),52.3%,–,"13 µM [rising, partial curve, poor fit]"
COC(=O)c1cc(S(=O)(=O)N2CCCCC2)ccc1N1CCOCC1,–,–,"6.51 µM [falling, single point]"
Cc1nn(C)c(C(=O)NNC(=S)Nc2ccc(F)cc2)c1[N+](=O)[O-],22.7%,"18.4 µM [falling, single point]",–
O=C(CSc1nnc(NC(=O)c2ccccc2)s1)NCc1ccco1,16.1%,"6.51 µM [rising, single point]",–
CCOC(=O)C1=C(COC(=O)COc2ccccc2C(C)C)NC(=O)NC1C (stereo not given),-10.4%,–,–

# Sorted by molar mass (smallest number first): 3 of the compounds above.
SMILES,cell number change,AC50 [1],AC50 [2]
CCc1ccccc1NC(=O)C1CCCN(c2ncccn2)C1 (stereo not given),16.7%,–,–
O=C(CSc1nnc(NC(=O)c2ccccc2)s1)NCc1ccco1,16.1%,"6.51 µM [rising, single point]",–
CCOC(=O)C1=C(COC(=O)COc2ccccc2C(C)C)NC(=O)NC1C (stereo not given),-10.4%,–,–
